The supplement of paper PMC3334620
Whole data set: some 33,000 sequences, median “E-score (-0.5 to 0.5)” near -0.015, cut for the highest 2% near 0.3. The list shows a part of the results.

Target: T1, Abf1 (UniProt P14164)
T1 sequence: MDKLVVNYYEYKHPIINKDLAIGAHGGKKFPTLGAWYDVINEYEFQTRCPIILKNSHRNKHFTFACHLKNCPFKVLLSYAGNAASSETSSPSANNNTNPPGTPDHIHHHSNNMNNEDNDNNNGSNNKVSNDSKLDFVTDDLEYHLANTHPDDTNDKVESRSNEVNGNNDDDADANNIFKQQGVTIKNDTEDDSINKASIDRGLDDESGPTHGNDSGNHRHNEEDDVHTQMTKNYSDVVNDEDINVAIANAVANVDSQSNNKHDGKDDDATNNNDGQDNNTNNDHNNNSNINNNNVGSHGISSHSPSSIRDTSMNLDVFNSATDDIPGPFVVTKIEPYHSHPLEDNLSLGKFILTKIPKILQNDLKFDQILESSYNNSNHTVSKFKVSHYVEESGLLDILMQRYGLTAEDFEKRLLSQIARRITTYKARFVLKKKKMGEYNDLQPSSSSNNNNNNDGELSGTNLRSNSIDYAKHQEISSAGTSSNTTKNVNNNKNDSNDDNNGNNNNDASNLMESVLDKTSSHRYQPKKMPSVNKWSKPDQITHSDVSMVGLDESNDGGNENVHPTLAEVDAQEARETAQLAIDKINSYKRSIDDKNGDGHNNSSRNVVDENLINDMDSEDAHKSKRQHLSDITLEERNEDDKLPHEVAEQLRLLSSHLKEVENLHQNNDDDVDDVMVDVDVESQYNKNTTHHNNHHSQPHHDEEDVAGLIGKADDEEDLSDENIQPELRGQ
Test: PBM E-score (8-mer binding enrichment) (E-score (-0.5 to 0.5)); higher = stronger / more preferred TF binding
Conditions: protein concentration: 200 nM; construct: GST-full length
Outline: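 The E-score, a modified Wilcoxon-Mann-Whitney statistic, was computed by the Universal PBM Analysis Suite for every ungapped eight-base word pooled with its reverse complement. Scans behind it were normalised with masliner after bound GST-tagged yeast transcription factors were detected with fluorescent anti-GST. The proteins, at about 100-200 nM, had been applied to universal all-10-mer Agilent arrays made double-stranded by primer extension.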

Row | Sequence | PBM E-score
1 | GTCTCAAC | 0.0243
2 | AGTCCGAT | -0.0313
3 | AATCACAA | -0.118
4 | AAGGGCAT | -0.231
5 | AATGGAAA | 0.0415
6 | CCGGGGAA | -0.232
7 | CGCGAGCC | -0.115
8 | CGGCTCAC | 0.0627
9 | GCCGGTCC | -0.369
10 | GCAGAGAA | 0.118
11 | ACGCGACA | 0.25
12 | GCACTTTA | 0.0218
13 | ATCTCGGG | -0.0633
14 | GCAGACCA | -0.179
15 | ACTCCTGC | -0.173
16 | AAGCAGAG | -0.023
17 | ATCGATAG | 0.098
18 | GTTTACCA | 0.0318
19 | CATCTTAG | -0.151
20 | AGCGTCCC | -0.257
21 | ATGCCAAT | 0.0319
22 | GAATAAAC | -0.0354

Row | Sequence | PBM E-score
23 | GTAGGGGA | -0.157
24 | ATCACCTC | 0.257
25 | GCGTGGTA | -0.131
26 | ACGAGGAA | 0.199
27 | ACGCGACT | -0.0799
28 | CAATACGG | 0.228
29 | CCGTCGCA | 0.282
30 | ATTGGAGG | -0.104
31 | ACTAGCTC | 0.00329
32 | GCGCGTCA | 0.0209
33 | CCGTCTCA | -0.064
34 | AATTTATA | 0.191
35 | CATGAAGG | -0.125
36 | AGCAAGTG | -0.0415
37 | CATTCGGG | -0.01
38 | CTTGTTAC | 0.0567
39 | ATGGTTAA | 0.0116
40 | GCATCCAA | -0.245
41 | CGACTACC | -0.146
42 | ATGCGACC | 0.109
43 | AAGGCCTT | -0.186
44 | CGGTCACA | -0.103

Single entries from the list:
PBM E-score, AAGGGCAT is entered as -0.231
PBM E-score, CGCGAGCC is entered as -0.115
PBM E-score, CGGTCACA is entered as -0.103
PBM E-score, AGCGTCCC is entered as -0.257
PBM E-score, AGTCCGAT is entered as -0.0313
PBM E-score, GCATCCAA is entered as -0.245

Next part:

Row | Sequence | PBM E-score
45 | AATAGTGT | 0.129
46 | ACAAAACG | 0.099
47 | GAGGTAGC | -0.181
48 | GACTAACA | 0.144
49 | CCTCTGTA | -0.0117
50 | AGCAGACC | -0.0678
51 | AAGTCGTG | -0.0223
52 | ACCGGTCC | -0.256
53 | CCAGCAAG | -0.0738
54 | GCCAACAA | -0.216
55 | GGAGGGGA | -0.23
56 | TGCGGTAA | 0.0631
57 | CCTATGCC | -0.26
58 | CACGGCCA | -0.0177
59 | CTGGAGGA | -0.202
60 | CTTGAATC | 0.0688
61 | CCGACGAG | 0.251
62 | CGGGGCAG | -0.12
63 | TCATAGCA | 0.092
64 | GAGAACTA | -0.0636
65 | CACCCAAG | -0.121
66 | CAAGATCC | 0.074

Row | Sequence | PBM E-score
67 | CGTGCTGA | 0.0774
68 | AGCCTTAC | -0.287
69 | TACCCCCA | -0.18
70 | CCGAGGGC | -0.00644
71 | GATCCTGA | -0.0903
72 | CAGCATCC | -0.306
73 | GCCGGGAA | 0.00635
74 | AAACGACG | 0.238
75 | AACCTAGG | -0.0738
76 | ACACGTAA | 0.0183
77 | TGCCTTAA | -0.0923
78 | CTACTACC | -0.00884
79 | GGTTAAAA | 0.0506
80 | GTACAGAA | 0.153
81 | CTCACGCC | -0.185
82 | AACCCGCC | -0.0773
83 | GTGATGTA | 0.399
84 | GGGAGACC | -0.325
85 | GTCGCCCA | -0.208
86 | ATATAGGG | -0.112
